Reference: paper PMC6923396
No constants are given. Whether binding was seen depends on the method and setting. In cells and extracts the contact can be indirect. Some entries that bind do so weakly or less than the wild type.

Chains of the proteins cited; added tags and fusions are not shown.
UniProt Q9UBN7: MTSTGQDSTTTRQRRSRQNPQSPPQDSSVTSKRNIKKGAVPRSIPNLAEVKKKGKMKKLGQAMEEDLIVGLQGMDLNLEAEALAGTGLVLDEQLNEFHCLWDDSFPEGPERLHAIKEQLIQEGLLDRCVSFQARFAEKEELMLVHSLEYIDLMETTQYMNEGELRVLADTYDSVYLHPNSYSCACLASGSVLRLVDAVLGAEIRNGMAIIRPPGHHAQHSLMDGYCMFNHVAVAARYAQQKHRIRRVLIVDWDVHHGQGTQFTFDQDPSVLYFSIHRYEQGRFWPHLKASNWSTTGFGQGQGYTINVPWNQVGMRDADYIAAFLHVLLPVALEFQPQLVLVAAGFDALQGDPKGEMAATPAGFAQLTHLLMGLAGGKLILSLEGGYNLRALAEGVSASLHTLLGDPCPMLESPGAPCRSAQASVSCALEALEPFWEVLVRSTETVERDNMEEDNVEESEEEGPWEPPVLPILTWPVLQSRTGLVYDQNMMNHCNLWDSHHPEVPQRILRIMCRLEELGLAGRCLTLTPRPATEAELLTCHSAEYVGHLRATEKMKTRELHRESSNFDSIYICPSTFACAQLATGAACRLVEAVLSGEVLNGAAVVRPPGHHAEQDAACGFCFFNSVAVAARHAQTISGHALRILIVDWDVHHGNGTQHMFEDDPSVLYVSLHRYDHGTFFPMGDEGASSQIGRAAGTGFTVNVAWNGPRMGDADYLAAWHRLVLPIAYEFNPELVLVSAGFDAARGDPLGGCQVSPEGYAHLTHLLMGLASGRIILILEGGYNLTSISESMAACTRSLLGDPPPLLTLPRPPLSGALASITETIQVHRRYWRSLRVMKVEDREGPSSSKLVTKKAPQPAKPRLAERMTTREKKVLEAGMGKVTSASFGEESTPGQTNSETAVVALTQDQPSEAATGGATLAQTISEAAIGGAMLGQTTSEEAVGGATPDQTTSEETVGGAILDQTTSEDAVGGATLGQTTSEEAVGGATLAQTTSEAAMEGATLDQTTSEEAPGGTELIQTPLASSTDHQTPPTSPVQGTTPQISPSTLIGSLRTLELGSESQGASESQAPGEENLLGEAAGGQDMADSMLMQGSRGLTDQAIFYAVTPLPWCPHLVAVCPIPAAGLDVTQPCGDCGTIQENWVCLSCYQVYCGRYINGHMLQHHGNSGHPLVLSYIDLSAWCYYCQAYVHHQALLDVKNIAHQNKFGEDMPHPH

Tests used:
[1] = biological target: endogenous p62 (p62/SQSTM1) of HEK293T cells (human (endogenous in HEK293T)) (UniProt Q13501); test: co-IP; endogenous TIP60 with p62 from HEK293T cells; NP-40 buffer
[2] = biological target: Flag-tagged HDAC6 (UniProt Q9UBN7); test: co-IP; HA- or Flag-tagged enzyme expressed in HEK293T cells and immunoprecipitated with anti-HA or anti-Flag; endogenous p62 detected with anti-p62; NP-40 buffer, 4 °C overnight
[3] = biological target: HA-TIP60 (UniProt Q92993); test: as above

| Substance | binding [1] | binding [2] | binding [3] |
| --- | --- | --- | --- |
| endogenous TIP60 of HEK293T cells (from UniProt Q92993 1-513) (enzyme) | binds |  |  |
| endogenous p62 (p62/SQSTM1) of HEK293T cells (from UniProt Q13501 1-440) |  | binds | binds |
